Patent publication US20240400644A1 (ACROIMMUNE GUANGZHOU BIOTECH, published 2024)
These are yes or no findings as the source states them, for the method shown. Some entries that bind do so weakly or less than the wild type.

Target: T1, HMGB1-His tag protein (human, UniProt P09429 1-215, limits assumed)
T1 construct: Bought, HEK293 cell derived; also called human HMGB1; HMGB1-His protein; not shown: His tag
T1 sequence (looked up): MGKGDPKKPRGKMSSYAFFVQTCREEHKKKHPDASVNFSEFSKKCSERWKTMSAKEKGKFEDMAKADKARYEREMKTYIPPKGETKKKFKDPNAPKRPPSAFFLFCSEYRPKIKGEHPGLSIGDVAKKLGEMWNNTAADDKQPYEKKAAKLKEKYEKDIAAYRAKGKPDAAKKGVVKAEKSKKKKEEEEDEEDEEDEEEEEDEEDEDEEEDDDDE
Test: ELISA: HMGB1-His coated at 0.1 µg/mL, CD24Fc titrated 2-fold, HRP goat anti-human IgG-Fc, TMB

binding: binds
Binder: SETTTGTSSNSSQSTSNSGLAPNPTNATTKAAG (Fc fusion, UniProt P25063 27-59, looked up, not shown: Fc part) [CD24Fc (producing cell not stated)]
